PubChem BioAssay AID1259308 – NCATS, 2017

Assay: 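Candidate targets for better recombinant protein yield in mammalian cells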 (primary screen)
Cells: human HEK293 embryonic kidney cells stably expressing firefly luciferase (HEK-CMV-Luc2-Hygro)
Reagents: single siRNA against human genes, 0.8 pmol siRNA per well
Time to read-out: 72 h
Measurement: 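Reporter luminescence and viable-cell signal on separate replicate plates, given as percent of non-targeting control and median/MAD z-scores, plus per-cell luciferase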
Reading the numbers: total luciferase, z-score and total luciferase, % of control: higher = more reporter protein produced; luciferase per cell, z-score: higher = more reporter output per viable cell
Call rule: 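Active when the median/MAD z-score for overall luciferase is greater than 3; a gene was taken forward for validation with new siRNAs if at least two of its three siRNAs passed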
Meaning of the calls: active = raised luciferase; inactive = no rise
In all, the deposit lists about 59,000 reagents; shown is a part drawn at random. In the full data, about 1,510 (2.6%) were called active. 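Calls use total luciferase alone and ignore viability, so some active siRNAs may act by altering cell number.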 The numbers tell different reagents against one gene apart. Not all columns of the deposit are shown. Reagent sequences are not shown.

gene knocked down,reagent no.,"total luciferase, z-score","total luciferase, % of control","luciferase per cell, z-score",call
LIMD1 (GeneID 8994),1,0.76,97,0.353,inactive
LIMD1 (GeneID 8994),2,0.398,89.8,0.338,inactive
LIMD1 (GeneID 8994),3,-0.475,72.4,-0.58,inactive
CCNT2 (GeneID 905),1,2.1,124,1.73,inactive
CCNT2 (GeneID 905),2,-1.79,46.3,-1.6,inactive
CCNT2 (GeneID 905),3,-0.0692,80.5,-0.249,inactive
ANGPTL5 (GeneID 253935),1,0.268,87.2,0.179,inactive
ANGPTL5 (GeneID 253935),2,-0.579,70.4,-0.653,inactive
ANGPTL5 (GeneID 253935),3,-0.825,65.5,-0.963,inactive
PLAC9P1 (GeneID 389033),1,-0.651,68.9,-0.483,inactive
PLAC9P1 (GeneID 389033),2,-1.2,57.9,-0.52,inactive
PLAC9P1 (GeneID 389033),3,-0.584,70.3,-0.248,inactive
ISYNA1 (GeneID 51477),1,-0.409,73.7,-0.143,inactive
ISYNA1 (GeneID 51477),2,0.436,90.6,0.553,inactive
ISYNA1 (GeneID 51477),3,-0.754,66.9,0.107,inactive
SNIP1 (GeneID 79753),1,-0.0155,81.6,0.173,inactive
SNIP1 (GeneID 79753),2,-0.21,77.7,0.277,inactive
SNIP1 (GeneID 79753),3,-0.497,72,0.838,inactive
ACACB (GeneID 32),1,-0.821,65.6,-1.34,inactive
ACACB (GeneID 32),2,1.3,108,0.59,inactive
ACACB (GeneID 32),3,0.833,98.5,0.00447,inactive
VMP1 (GeneID 81671),1,1,102,0.965,inactive
VMP1 (GeneID 81671),2,0.4,89.8,0.217,inactive
VMP1 (GeneID 81671),3,0.0224,82.3,-0.41,inactive
FAM245A (GeneID 728218),1,-0.549,71,0.0118,inactive
FAM245A (GeneID 728218),2,0.0139,82.2,0.216,inactive
FAM245A (GeneID 728218),3,-0.997,62.1,-0.576,inactive
IL17RB (GeneID 55540),1,-0.0112,81.7,0.57,inactive
IL17RB (GeneID 55540),2,-0.292,76.1,-0.391,inactive
IL17RB (GeneID 55540),3,0.858,99,0.838,inactive
PACSIN2 (GeneID 11252),1,-0.337,75.2,1.02,inactive
PACSIN2 (GeneID 11252),2,2.26,127,2.06,inactive
PACSIN2 (GeneID 11252),3,1.65,115,1.2,inactive
ALDH2 (GeneID 217),1,-0.14,79.1,-0.00412,inactive
ALDH2 (GeneID 217),2,-0.161,78.7,-0.456,inactive
ALDH2 (GeneID 217),3,-0.0957,80,-0.488,inactive
SPDYE21 (GeneID 442572),1,0.783,97.5,0.235,inactive
SPDYE21 (GeneID 442572),2,2.61,134,1.33,inactive
SPDYE21 (GeneID 442572),3,-0.47,72.5,-0.832,inactive
SLC7A14 (GeneID 57709),1,-0.282,76.3,-0.539,inactive
SLC7A14 (GeneID 57709),2,1.01,102,1.47,inactive
SLC7A14 (GeneID 57709),3,0.234,86.5,0.901,inactive
SLC7A14 (GeneID 57709),4,-0.799,66,-0.0324,inactive
SLC7A14 (GeneID 57709),5,-0.715,67.7,-0.522,inactive
SLC7A14 (GeneID 57709),6,-0.0454,81,-0.35,inactive
PLEKHH2 (GeneID 130271),1,0.469,91.2,0.553,inactive
PLEKHH2 (GeneID 130271),2,-2.52,31.8,-1.83,inactive
PLEKHH2 (GeneID 130271),3,0.331,88.5,0.0964,inactive
USP28 (GeneID 57646),1,-0.116,79.6,-0.446,inactive
USP28 (GeneID 57646),2,-0.54,71.1,-0.354,inactive
USP28 (GeneID 57646),3,-0.361,74.7,-0.937,inactive
CPM (GeneID 1368),1,-0.0104,81.7,-0.0706,inactive
CPM (GeneID 1368),2,0.286,87.6,0.358,inactive
CPM (GeneID 1368),3,-0.499,72,-0.797,inactive
STAG3L4 (GeneID 64940),1,-0.954,62.9,-1.49,inactive
STAG3L4 (GeneID 64940),2,0.21,86.1,0.0261,inactive
STAG3L4 (GeneID 64940),3,-0.383,74.3,-0.391,inactive
PLA2G12B (GeneID 84647),1,-1.21,57.9,-0.809,inactive
PLA2G12B (GeneID 84647),2,0.384,89.5,0.706,inactive
PLA2G12B (GeneID 84647),3,-0.374,74.5,-0.75,inactive
CYP2W1 (GeneID 54905),1,-1.24,57.2,-0.919,inactive
CYP2W1 (GeneID 54905),2,-1.3,56,-1.21,inactive
CYP2W1 (GeneID 54905),3,-0.829,65.4,-1.19,inactive
HES7 (GeneID 84667),1,-0.636,69.2,-0.744,inactive
HES7 (GeneID 84667),2,-0.846,65.1,-0.193,inactive
HES7 (GeneID 84667),3,0.468,91.2,0.4,inactive
FLOT2 (GeneID 2319),1,-1.12,59.7,-0.617,inactive
FLOT2 (GeneID 2319),2,0.714,96.1,0.631,inactive
FLOT2 (GeneID 2319),3,0.375,89.3,0.0367,inactive
KIFC3 (GeneID 3801),1,0.638,94.6,0.326,inactive
KIFC3 (GeneID 3801),2,-0.342,75.1,-0.368,inactive
KIFC3 (GeneID 3801),3,-0.9,64,-0.85,inactive
S100A14 (GeneID 57402),1,-0.886,64.3,-0.435,inactive
S100A14 (GeneID 57402),2,2.25,127,1.45,inactive
S100A14 (GeneID 57402),3,-1.64,49.3,-0.976,inactive

No new results follow: entries from further up.
gene knocked down,reagent no.,"total luciferase, z-score","total luciferase, % of control","luciferase per cell, z-score",call
CPM (GeneID 1368),1,-0.0104,81.7,-0.0706,inactive
CPM (GeneID 1368),2,0.286,87.6,0.358,inactive
CPM (GeneID 1368),3,-0.499,72,-0.797,inactive
STAG3L4 (GeneID 64940),1,-0.954,62.9,-1.49,inactive
STAG3L4 (GeneID 64940),2,0.21,86.1,0.0261,inactive
STAG3L4 (GeneID 64940),3,-0.383,74.3,-0.391,inactive
PLA2G12B (GeneID 84647),1,-1.21,57.9,-0.809,inactive
PLA2G12B (GeneID 84647),2,0.384,89.5,0.706,inactive
PLA2G12B (GeneID 84647),3,-0.374,74.5,-0.75,inactive
CYP2W1 (GeneID 54905),1,-1.24,57.2,-0.919,inactive
CYP2W1 (GeneID 54905),2,-1.3,56,-1.21,inactive
